Results are given in words; binding and its absence hold for the method and conditions named. Some results given as binding are weak or reduced against the parent protein; the word gives no strength. For part of these data: Sequences can lack the tags named with a protein. Blank lines part the entries; values can stand above or below the binder they belong to.
Assays:
Assay in all cases: cryo-EM structure
[1] = target: T1, SNRNP35 (ProteinA-TEV-3×HA-tagged) (human) (UniProt Q16560)
T1 sequence: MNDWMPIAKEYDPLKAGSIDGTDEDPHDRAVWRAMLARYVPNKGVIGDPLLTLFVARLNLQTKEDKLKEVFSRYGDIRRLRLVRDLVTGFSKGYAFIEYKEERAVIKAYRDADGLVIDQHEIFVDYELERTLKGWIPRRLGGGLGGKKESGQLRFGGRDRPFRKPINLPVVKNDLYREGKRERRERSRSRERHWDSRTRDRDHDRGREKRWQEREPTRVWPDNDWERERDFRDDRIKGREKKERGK

Protein sequences, listed by entry. Tags and fused reporters are not part of them.
UniProt P62318: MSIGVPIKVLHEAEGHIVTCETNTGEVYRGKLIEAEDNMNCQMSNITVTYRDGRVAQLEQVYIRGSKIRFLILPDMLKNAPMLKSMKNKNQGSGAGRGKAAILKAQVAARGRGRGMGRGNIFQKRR

[2] = target: T2, SNRNP25 (human (endogenous in HEK293F)) (UniProt Q9BV90)
T2 sequence: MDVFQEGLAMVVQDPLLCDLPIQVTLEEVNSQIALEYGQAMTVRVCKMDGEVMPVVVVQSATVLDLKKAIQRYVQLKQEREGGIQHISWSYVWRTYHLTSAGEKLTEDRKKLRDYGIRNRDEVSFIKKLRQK

[3] = target: SmD3 (human (endogenous in HEK293F)) (UniProt P62318)

binding [1]: binds
B1: SNRNP25 (protein, UniProt Q9BV90 1-132)
chain: T2 sequence

binding [2]: binds
B2: PDCD7 (protein, UniProt Q8N8D1 1-485)
chain: MALPPFFGQGRPGPPPPQPPPPAPFGCPPPPLPSPAFPPPLPQRPGPFPGASAPFLQPPLALQPRASAEASRGGGGAGAFYPVPPPPLPPPPPQCRPFPGTDAGERPRPPPPGPGPPWSPRWPEAPPPPADVLGDAALQRLRDRQWLEAVFGTPRRAGCPVPQRTHAGPSLGEVRARLLRALRLVRRLRGLSQALREAEADGAAWVLLYSQTAPLRAELAERLQPLTQAAYVGEARRRLERVRRRRLRLRERAREREAEREAEAARAVEREQEIDRWRVKCVQEVEEKKREQELKAAADGVLSEVRKKQADTKRMVDILRALEKLRKLRKEAAARKGVCPPASADETFTHHLQRLRKLIKKRSELYEAEERALRVMLEGEQEEERKRELEKKQRKEKEKILLQKREIESKLFGDPDEFPLAHLLEPFRQYYLQAEHSLPALIQIRHDWDQYLVPSDHPKGNFVPQGWVLPPLPSNDIWATAVKLH

binding [3]: binds
B3: ZMAT5 (protein, UniProt Q9UDW3 1-170)
chain: MGKRYFCDYCDRSFQDNLHNRKKHLNGLQHLKAKKVWYDMFRDAAAILLDEQNKRPCRKFLLTGQCDFGSNCRFSHMSERDLQELSIQVEEERRAREWLLDAPELPEGHLEDWLEKRAKRLSSAPSSRAEPIRTTVFQYPVGWPPVQELPPSLRAPPPGGWPLQPRVQWG
